The numbers were not newly measured in patent US8784849B2, “Hydroxyapatite-targeting poly(ethylene glycol) and related polymers” (Nektar Therapeutics, priority 2000, dated 2014), which cites them from elsewhere.

For this data set the following is noted: cited from earlier work.

Consider `CC(=O)O[C@H]1C(=O)[C@@]2(C)[C@H]([C@H](OC(=O)c3ccccc3)[C@]3(O)C[C@H](OC(=O)[C@H](O)[C@@H](NC(=O)c4ccccc4)c4ccccc4)C(C)=C1C3(C)C)[C@]1(OC(C)=O)CO[C@@H]1C[C@@H]2O` [paclitaxel], for which the “solubility in water (in words)” value is “water-insoluble”.
